Test results taken from patent publication US7279573B2, “Amide derivatives” (Kaken Pharmaceutical Co., Ltd., priority 1997, dated 2007).
Some entries share one result that the patent states for a list of compounds.

Tested on: primary rat anterior pituitary cells
Test: In vitro growth hormone (GH) release in primary rat anterior pituitary cells, GH measured by RIA
Assay type: cell-based
Conditions: incubation 15 minutes at 37° C, GH release into medium by RIA

Q: `Cl.NCCCNC(=O)[C@@H](Cc1ccc2ccccc2c1)NC(=O)CCN1C(=O)CCSc2ccccc21` [Example 1, N-[1(R)-(3-Aminopropylcarbamoyl)-2-(naphthalen-2-yl)ethyl]-3-(4-oxo-2,3-dihydro-[1,5]-benzothiazepin-5-yl)propionamide hydrochloride] was tested. Which “growth hormone (GH) releasing activity” value did it give?
A: below 10^−8 M
